The series in a line: peptide made by a vendor. Particulars: whole synthesis, one disulfide bridge, sequence written open.

End groups of sequences in plain letters are not given here.

Turning to DREGCRRGWVGQCKAWFN, the “final HPLC purity” value is given as “greater than 95% pure”.
Then DVEACGGGWVGHCNYWLR, with “greater than 95% pure”.
